Legend:
MG1655/F′Tn10 [1] = test: DNA platinum adduct levels by atomic absorption spectrometry; format: cell-based, E. coli; conditions: highest cisplatin dose
MG1655/F′Tn10 [2] = test: Total cellular platinum by atomic absorption spectrometry; format: cell-based, E. coli; conditions: highest cisplatin dose

SMILES: N.N.[Cl][Pt][Cl] [cisplatin, cis-diammine-dichloro-platinum(II)]
- levels of DNA damage (platinum content in DNA) (MG1655/F′Tn10 [1]; co-treatment with tetracycline): small further increase in levels of DNA damage
- cisplatin DNA damage (platinum content in DNA) (MG1655/F′Tn10 [1]; grown with tetracycline, vs MG1655): accumulated more DNA damage than MG1655 cells
- total cellular levels of cisplatin (MG1655/F′Tn10 [2]; co-treatment with tetracycline): small increase in total cellular levels of cisplatin
- platinum levels (total cellular) (MG1655/F′Tn10 [2]; grown in tetracycline prior to cisplatin treatment, vs MG1655): the same

— patent publication US7943600B2, “Antimicrobial combination therapy” (priority 2004, dated 2011)
